Measured values from PubChem BioAssay AID624297 (National Center for Advancing Translational Sciences (NCATS), 2012).
Among all 340,000 compounds or so, about 6,200 (1.8%) were called active. The shares of active, inactive and inconclusive entries below differ from those in the screen. The call rests on the fitted dose curve; in most records, active means well fitted activation curve with a large enough effect; inconclusive means small, poorly fitted or top-dose-only effect; inactive means no such curve, though single readings can be large or run the other way. Where the call is inconclusive, the potency comes from a doubtful curve fit.
Potency means the concentration at half of the fitted maximal effect.

Assay: A quantitative high throughput screen for small molecules that induce DNA re-replication in SW480 colon adenocarcinoma cells. Further: nearly all actives have a fitted effect of over 55% in size. On re-replication activation: % of control where 0% means no effect.
Conditions: Hoechst DNA content imaging, 48 h; re-replication activation: at 46.1 µM (top of the series) unless noted
In short: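 DNA re-replication was detected as more nuclei of elevated Hoechst intensity after 48 hr exposure to compound (23 nL pinned per well of 250 cells).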
For Cc1ccc(C)n1NC(=O)c1ccccc1Cl, the Potency was inconclusive: 11.6 µM [activator, partial curve, poor fit].
For CCc1ccc(NC(=O)CCC(=O)c2ccccc2)cc1, the “re-replication activation” value was inactive: -16%.
For COc1ccccc1NC(=S)NN=C(C)c1ccccn1, the Potency was inconclusive: 16.4 µM [activator, partial curve, poor fit].
With COCCNC(=O)/C(C#N)=C/c1cccc(OCc2ccccc2)c1 the Potency was inconclusive: 25.9 µM [activator, single point].
With COc1ccc(NC(=O)CSc2nnnn2C2CCCCC2)c(OC)c1 the “re-replication activation” value was inactive: -25.6%.
In the case of OC(COc1ccc2c(c1)OCO2)CN1CCc2ccccc2C1 (centres undefined), the Potency is reported as inconclusive: 0.103 µM [activator, full curve, poor fit].
With O=C(Cc1nc2ccccc2[nH]1)c1cccc([N+](=O)[O-])c1 the Potency was inconclusive: 18.4 µM [activator, single point].
In the case of C=CCc1cc(OC)ccc1OCCN1CC(C)OC(C)C1 (centres undefined), the “re-replication activation” value is reported as inactive: -19.7%.
For CCOC(=O)N1CCN(C(=O)CSc2ccc(-c3ccc(OC)c(OC)c3)nn2)CC1, the “re-replication activation” value was inactive: 1.13%.
For COc1cc(C)ccc1OCc1cc(C(=O)NC(C)Cn2cncn2)no1 (centres undefined), the “re-replication activation” value was inactive: -5%.
In the case of O=C(CSc1nc2ccccc2[nH]1)NCC1CCCO1 (centres undefined), the Potency is reported as inconclusive: 1.03 µM [activator, partial curve].
For CN(C)CCNc1ncnc2c1cnn2-c1ccc(Cl)cc1, the Potency was inconclusive: 16.4 µM [activator, single point].
For CCC1=NN(C(=O)Cc2ccccc2)C(O)(c2ccncc2)C1 (centres undefined), the “re-replication activation” value was inactive: 0.415%.
For O=C(CCNC(=O)c1ccc(Cl)cc1)NCc1cccc(C(F)(F)F)c1, the Potency was inconclusive: 29.1 µM [activator, partial curve, poor fit].
For COC(=O)c1sc(S(=O)(=O)N2CCC(C(=O)O)CC2)c(C(=O)OC)c1C, the Potency was inconclusive: 6.51 µM [activator, single point].
For O=C(Nc1ccnn1C1CCN(C(=O)Cc2ccccc2F)CC1)C1CC1, the Potency was inconclusive: 29.1 µM [activator, single point].
With CCCc1nc2ccccc2c(=O)n1/N=C/c1ccc(O)cc1O the Potency was inconclusive: 20.6 µM [activator, partial curve, poor fit].
With CCC1(C)Cc2c(sc3nnn(Cc4ccccc4Cl)c(=O)c23)CO1 (centres undefined) the “re-replication activation” value was inactive: 17.1%.
For Cn1c(-c2ccc3c(c2)OCO3)cnc1NCc1ccccc1, the Potency was inconclusive: 20.6 µM [activator, single point].
For Cc1nc2c(c3c1[nH]c1ccccc13)C(O)CC(C)(C)C2 (centres undefined), the Potency was inconclusive: 16.4 µM [activator, single point].
For CCN(CC)CCNc1ccnc2cc(Cl)ccc12, the Potency was inconclusive: 16.4 µM [activator, single point].
With O=S(=O)(Nc1ncccn1)c1ccc(F)cc1 the Potency was inconclusive: 23.1 µM [activator, single point].
With Cc1ccc(C(=O)NC(=S)Nc2nc(-c3cccc([N+](=O)[O-])c3)cs2)c(Cl)c1 the “re-replication activation” value was inactive: 2.06%.
For COc1ccc(-c2nc(-c3ccccc3)ncc2S(C)(=O)=O)cc1, the “re-replication activation” value was inactive: -1.98%.
With Cn1c(=N)n(CC(=O)c2ccc(Br)cc2)c2ccccc21 the “re-replication activation” value was inactive: -5.69%.
In the case of CC(=O)Nc1ccc(S(=O)(=O)Nc2ccccc2N2CCOCC2)cc1, the “re-replication activation” value is reported as inactive: -18.1%.
With O=C(C1CCN(S(=O)(=O)c2ccc(F)cc2)CC1)N1CCCC(C(F)(F)F)C1 (centres undefined) the “re-replication activation” value was inactive: -9.21%.
With CS(=O)(=O)c1ccc(Sc2nc3ccccc3s2)c([N+](=O)[O-])c1 the Potency was active: 7.31 µM.
For CCCc1ccc(OCCNC(=O)CC)cc1, the “re-replication activation” value was inactive: 16%.
In the case of C#CCOc1ccccc1CNc1ccccc1, the Potency is reported as inconclusive: 16.4 µM [activator, partial curve, poor fit].
With COC(=O)/C=C\C(=O)Nc1cccc([N+](=O)[O-])c1 the Potency was inconclusive: 29.1 µM [activator, single point].
With CCN(CC)CCCNC(=O)CSc1nc2c(c(C(F)(F)F)n1)CCc1ccccc1-2 the Potency was inconclusive: 29.1 µM [activator, single point].
In the case of CCOc1ccc2c(c1)C(C)=CC(C)(C)N2, the Potency is reported as “inactive”.
For O=C(O)C1CCN(S(=O)(=O)/C=C/c2ccccc2)CC1, the Potency was inconclusive: 25.9 µM [activator, single point].
In the case of O=C(CSc1nc2ccccc2c(=O)n1-c1ccc(Cl)cc1)N/N=C/C=C/c1ccccc1[N+](=O)[O-], the Potency is reported as inconclusive: 25.9 µM [activator, partial curve, poor fit].
For COc1ccc(-c2nc(CN3CCC(C(=O)NC4CC4)CC3)c(C)o2)cc1OC, the Potency was inconclusive: 23.1 µM [activator, partial curve, poor fit].
With CCOc1ccc(C(=O)C[n+]2ccccc2C)cc1 the “re-replication activation” value was inactive: -9.95%.
For CCOc1ccc(C(=O)NC(=S)Nc2ccc(NC(=O)c3ccco3)cc2)cc1[N+](=O)[O-], the Potency was inconclusive: 6.51 µM [activator, single point].
In the case of COc1ccc(/C=N/Nc2ncnc3sc4c(c23)CCCC4)cc1O, the Potency is reported as inconclusive: 29.1 µM [activator, single point].
With O=C(CCC(=O)N/N=C/c1cc(Cl)cc(Cl)c1O)NCc1ccccc1 the Potency was inconclusive: 29.1 µM [activator, partial curve, poor fit].
With CCSc1ncc(Cl)c(C(=O)Nc2ccccc2C)n1 the Potency was inconclusive: 13 µM [activator, partial curve, poor fit].
With NCC(c1ccccc1)(c1ccccc1)c1ccccc1 the Potency was inconclusive: 23.1 µM [activator, single point].
In the case of COC(=O)C1C(=O)N2CCCSC2=C(C#N)C1c1cccs1 (centres undefined), the Potency is reported as inconclusive: 29.1 µM [activator, single point].
With CC(=O)Nc1ccc(S(=O)(=O)NCC2CCC(C(=O)NC3CCCCCC3)CC2)cc1 (centres undefined) the Potency was inconclusive: 29.1 µM [activator, partial curve, poor fit].
For N#CCCN1CCN(C(=S)c2ccc(-c3cccc(Cl)c3)o2)CC1, the “re-replication activation” value was inactive: -2.33%.
With O=C(CC1(O)C(=O)Nc2ccccc21)c1cccc(-n2cccc2)c1 (centres undefined) the Potency was inconclusive: 7.31 µM [activator, partial curve, poor fit].
For CCc1ccccc1Nc1ncnc2ccccc12, the Potency was inconclusive: 0.146 µM [activator, full curve, poor fit].
For CCOC(=O)[C@H](CCc1ccccc1)N[C@@H](C)C(=O)N1[C@H](C(=O)O)C[C@@H]2CCC[C@@H]21, the “re-replication activation” value was inactive: -5.58%.
For Cc1cccc(-n2c(=S)[nH]c3nc4c(cc3c2=O)COC(C)(C)C4)c1, the “re-replication activation” value was inactive: -23.1%.
For O=C(O)CSc1cc(C(=O)c2ccccc2O)cn2c(=O)c3c(-c4ccccc4)csc3nc12, the re-replication activation was inconclusive: -41% [activator].
With O=S(=O)([N-]c1nc2ccccc2nc1-n1cc[n+](Cc2ccccc2)c1)c1ccc(Br)cc1 the Potency was active: 18.4 µM.
With CN(C)CC(C)(C)CNC(=S)Nc1ccc(S(=O)(=O)N2CCOCC2)cc1 the Potency was active: 25.9 µM.
With OCCNc1nc(-c2ccccc2)c2ccccc2n1 the re-replication activation was inconclusive: 36% [activator].
With CN=c1scc(-c2ccco2)n1/N=C/c1ccc(O)c(O)c1 the Potency was inconclusive: 16.4 µM [activator, single point].
For O=C(COC(=O)CNS(=O)(=O)c1c(F)cccc1F)NC(=O)NC1CCCCC1, the “re-replication activation” value was inactive: -21%.
With Cc1ccc(CS(=O)Cc2ccc(C(=O)NCc3ccc4c(c3)OCO4)o2)cc1 (centres undefined) the Potency was inconclusive: 5.17 µM [activator, partial curve, poor fit].
In the case of CC(=O)CCS(=O)(=O)c1ccc(NC(C)=O)cc1, the Potency is reported as inconclusive: 29.1 µM [activator, single point].
In the case of C/C(=N\NC(=O)C(N)=O)c1ccc(Br)cc1, the Potency is reported as inconclusive: 2.31 µM [activator, partial curve, poor fit].
For Clc1cccc(Cl)c1/C=C/c1ccn[nH]1, the Potency was inconclusive: 29.1 µM [activator, single point].
In the case of Cc1cc(C(=O)N(C)CC(=O)Nc2ccccc2C(F)(F)F)c(C)o1, the Potency is reported as inconclusive: 23.1 µM [activator, single point].
With CCn1cc(CNC(=O)c2ccc(C)s2)cn1 the Potency was inconclusive: 29.1 µM [activator, single point].
In the case of C[C@H](CO)N1C[C@H](C)[C@@H](CN(C)C(=O)Nc2ccc(C(F)(F)F)cc2)Oc2ccc(NC(=O)Nc3ccc4c(c3)OCO4)cc2C1=O, the Potency is reported as inconclusive: 29.1 µM [activator, single point].
For CC[C@]12c3[nH]c4cc(-c5ccco5)ccc4c3CCN1C(=O)[C@@H](CC(=O)NCC13CC4CC(CC(C4)C1)C3)C[C@@H]2C(=O)N1CCN(C(=O)C2CC2)CC1, the Potency was inconclusive: 29.1 µM [activator, single point].
In the case of Cc1c(C(=O)N2CCOCC2)sc2nc(-c3ccccc3)cn12, the “re-replication activation” value is reported as inactive: -8.58%.
For O=C(Nc1cccc(-c2nc3ncccc3o2)c1)c1sc2cc(Cl)ccc2c1Cl, the “re-replication activation” value was inactive: -3.43%.
With COc1ccccc1NS(=O)(=O)c1cccc(C(=O)NCC2(N3CCCCC3)CCCCC2)c1 the Potency was inconclusive: 0.517 µM [activator, full curve, poor fit].
With O=C(NCCN1C(=O)S/C(=C\c2ccccc2F)C1=O)C1CCCN1C(=O)c1cccs1 (centres undefined) the Potency was inconclusive: 6.51 µM [activator, partial curve].
For COc1cccc(OCc2cc(C(=O)N3CCN(C4CCCC4)CC3)no2)c1, the Potency was inconclusive: 29.1 µM [activator, partial curve, poor fit].
With CN(CC(=O)Nc1cccc(S(=O)(=O)NC2=NCCCCC2)c1)Cc1ccc(C(C)(C)C)cc1 the Potency was inconclusive: 11.6 µM [activator, partial curve, poor fit].
